# According to patent US3972991A, “Radioisotopic assay and binder therefor” (priority 1974, dated 1976):
# At least one compound was matched to its structure with a doubt left.
# Tests used:
# hog kidney binder factor [1] = test: effect of enzymes, pH, ions, chelators, denaturants and other agents on binding of 3H-PGA to hog kidney binder; details: FIG. 7; albumin coated charcoal
# hog kidney binder factor [2] = test: sequential addition of unlabeled folate derivatives and 3H-PGA, displacement (FIG. 6B); assay type: binding; details: PGA curve of FIG. 6B
# Description: The binding conditions were similar to those used in obtaining the data appearing in FIG. 6A except that 3 pmoles of ^3 H-PGA was added to the reaction containing enough binder factor to bind about 2.5 pmoles of PGA. The binder was preincubated for 30 minutes in the dark at room temperature with unlabeled folate derivatives as indicated. Then the ^3 H-PGA was added and the reaction allowed to continue for an additional 30 minutes and then stopped and counted as in obtaining the data for FIG. 6A.
# The calculated curve of FIG. 6B depicts the relationship to be expected by balancing on a molar basis the binding capacity of the hog kidney binder factor with the known pmoles of folate analog added in the absence of any displacement. […] The hog kidney binder factor thus differs from other high affinity folate binder factors such as those found in milk and in serum and in leukocytes of some patients with chronic granulocytic leukemia.
# hog kidney folate binder = test: direct competition for PGA binding sites in hog kidney folate binder (FIG. 6A)
# Description: The reaction was started by addition of folate binder and allowed to proceed for 30 minutes at room temperature in the dark. The reaction was stopped by placing the tubes on ice and adding 1.0 ml of a suspension of powdered activated charcoal coated with albumin. After 2 to 3 minutes on ice, the tubes were centrifuged at 6000 × G for 10 minutes at 4°C to remove the charcoal absorbed "free" folate. 1.0 ml of the clear supernatant fluid which contained the folate/binder complex was counted by liquid scintillation spectroscopy according to known procedures. Charcoal controls prepared by substituting buffer for binder in one series of tubes were prepared to determine the number of counts not removed by the charcoal. Percent maximum binding was calculated by the formula [formula]
smiles,measurement,setting,value
"Nc1nc2ncc(CNc3ccc(C(=O)N[C@@H](CCC(=O)O)C(=O)O)cc3)nc2c(=O)[nH]1 [PGA, pteroylmonoglutamate]",pH of 1/2 maximum binding,hog kidney binder factor [1],~4.5 pH
same,tightness of binding of the hog kidney binder factor with PGA and 5CH3 FH4,hog kidney binder factor [2],approximately equal
same,competition for PGA binding sites,hog kidney folate binder,greater competition
same,amount required to achieve 50% inhibition of 3H-PGA binding,"hog kidney folate binder; FIG. 6A, 0.225 pmoles 3H-PGA, pH 7.6, total volume 1.0 ml, 30 min room temperature",approximately 0.16 pmoles
